Here are results for four molecules from patent publication US12522647B2, “Beta-arrestin mutants” (PAUL SCHERRER INSTITUT, priority 2019, dated 2026).

In this data set the test system is HEK293 cells. Nature of the data set: Expression level of GFP-fused arrestin-3 constructs by GFP fluorescence in a plate reader. The format is cell-based, human. To be noted: for GFP levels compared to WT (%): expression level in HEK293 cells, GFP fluorescence excited at 485 nm, averaged over two assays, normalized to WT.

Where a chain is given by its changes, count along the chain named. Names may count otherwise.

Regarding “Double mutant A: Arrestin-3 double mutant containing T299A and I386A when compared to human wt arrestin-3”, the “GFP levels compared to WT (%)” value is on record as 36%. The “Decrease in expression compared to WT arrestin-3” value (expression in cells) is on record as 74%. In addition, the “GFP levels compared to WT (%)” value (listed as double mutant A) is recorded as 36%.

B1: Triple mutant C: Arrestin-3 triple mutant containing T299A, I386A and D298A when compared to human wt arrestin-3 (protein)
chain: MGEKPGTRVFKKSSPNCKLTVYLGKRDFVDHLDKVDPVDGVVLVDPDYLKDRKVFVTLTCAFRYGREDLDVLGLSFRKDLFIATYQAFPPVPNPPRPPTRLQDRLLRKLGQHAHPFFFTIPQNLPCSVTLQPGPEDTGKACGVDFEIRAFCAKSLEEKSHKRNSVRLVIRKVQFAPEKPGPQPSAETTRHFLMSDRSLHLEASLDKELYYHGEPLNVNVHVTNNSTKTVKKIKVSVRQYADICLFSTAQYKCPVAQLEQDDQVSPSSTFCKVYTITPLLSDNREKRGLALDGKLKHEAANLASSTIVKEGANKEVLGILVSYRVKVKLVVSRGGDVSVELPFVLMHPKPHDHIPLPRPQSAAPETDVPVDTNLIEFDTNYATDDDAVFEDFARLRLKGMKDDDYDDQLC
modifications: Arrestin-3 triple mutant C containing T299A, I386A and D298A
As to B1, the “GFP levels compared to WT (%)” value amounted to 55%. In addition, under “listed as triple mutant C”, the “GFP levels compared to WT (%)” value was 55%.

B2: Triple mutant D: Arrestin-3 triple mutant containing T299A, I386A and R393A when compared to human wt arrestin-3 (protein)
chain: B1 chain with A298D, R393A
modifications: Arrestin-3 triple mutant D containing T299A, I386A and R393A
For B2, the “GFP levels compared to WT (%)” value worked out at 26%.

B3: Triple mutant B: Arrestin-3 triple mutant containing T299A, I386A and R166A when compared to human wt arrestin-3 (protein)
chain: B1 chain with R166A, A298D
modifications: Arrestin-3 triple mutant B containing T299A, I386A and R166A
Regarding B3, the “GFP levels compared to WT (%)” value amounted to 35%.
